# From the supplement of paper PMC10032668
# The chains behind the UniProt entries cited, without tags or fusion partners.
# FAM168B, A1KXE4, UniProt A1KXE4, whole entry: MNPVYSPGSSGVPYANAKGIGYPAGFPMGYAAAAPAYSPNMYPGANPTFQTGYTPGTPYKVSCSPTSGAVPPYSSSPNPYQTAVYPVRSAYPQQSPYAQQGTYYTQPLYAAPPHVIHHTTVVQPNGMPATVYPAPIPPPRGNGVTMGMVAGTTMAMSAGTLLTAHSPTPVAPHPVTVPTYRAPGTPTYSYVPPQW
# PCBP2, Q15366, UniProt Q15366, whole entry: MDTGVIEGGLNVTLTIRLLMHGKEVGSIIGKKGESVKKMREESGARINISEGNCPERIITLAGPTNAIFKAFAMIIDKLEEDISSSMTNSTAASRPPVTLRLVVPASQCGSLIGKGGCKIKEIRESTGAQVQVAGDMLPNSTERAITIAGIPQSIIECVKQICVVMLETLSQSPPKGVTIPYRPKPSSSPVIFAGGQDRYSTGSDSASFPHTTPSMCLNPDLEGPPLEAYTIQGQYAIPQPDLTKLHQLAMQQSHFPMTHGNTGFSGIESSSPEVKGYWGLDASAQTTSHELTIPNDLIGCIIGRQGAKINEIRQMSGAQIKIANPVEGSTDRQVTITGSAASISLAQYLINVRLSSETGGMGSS
# CNOT1, A5YKK6, UniProt A5YKK6, whole entry: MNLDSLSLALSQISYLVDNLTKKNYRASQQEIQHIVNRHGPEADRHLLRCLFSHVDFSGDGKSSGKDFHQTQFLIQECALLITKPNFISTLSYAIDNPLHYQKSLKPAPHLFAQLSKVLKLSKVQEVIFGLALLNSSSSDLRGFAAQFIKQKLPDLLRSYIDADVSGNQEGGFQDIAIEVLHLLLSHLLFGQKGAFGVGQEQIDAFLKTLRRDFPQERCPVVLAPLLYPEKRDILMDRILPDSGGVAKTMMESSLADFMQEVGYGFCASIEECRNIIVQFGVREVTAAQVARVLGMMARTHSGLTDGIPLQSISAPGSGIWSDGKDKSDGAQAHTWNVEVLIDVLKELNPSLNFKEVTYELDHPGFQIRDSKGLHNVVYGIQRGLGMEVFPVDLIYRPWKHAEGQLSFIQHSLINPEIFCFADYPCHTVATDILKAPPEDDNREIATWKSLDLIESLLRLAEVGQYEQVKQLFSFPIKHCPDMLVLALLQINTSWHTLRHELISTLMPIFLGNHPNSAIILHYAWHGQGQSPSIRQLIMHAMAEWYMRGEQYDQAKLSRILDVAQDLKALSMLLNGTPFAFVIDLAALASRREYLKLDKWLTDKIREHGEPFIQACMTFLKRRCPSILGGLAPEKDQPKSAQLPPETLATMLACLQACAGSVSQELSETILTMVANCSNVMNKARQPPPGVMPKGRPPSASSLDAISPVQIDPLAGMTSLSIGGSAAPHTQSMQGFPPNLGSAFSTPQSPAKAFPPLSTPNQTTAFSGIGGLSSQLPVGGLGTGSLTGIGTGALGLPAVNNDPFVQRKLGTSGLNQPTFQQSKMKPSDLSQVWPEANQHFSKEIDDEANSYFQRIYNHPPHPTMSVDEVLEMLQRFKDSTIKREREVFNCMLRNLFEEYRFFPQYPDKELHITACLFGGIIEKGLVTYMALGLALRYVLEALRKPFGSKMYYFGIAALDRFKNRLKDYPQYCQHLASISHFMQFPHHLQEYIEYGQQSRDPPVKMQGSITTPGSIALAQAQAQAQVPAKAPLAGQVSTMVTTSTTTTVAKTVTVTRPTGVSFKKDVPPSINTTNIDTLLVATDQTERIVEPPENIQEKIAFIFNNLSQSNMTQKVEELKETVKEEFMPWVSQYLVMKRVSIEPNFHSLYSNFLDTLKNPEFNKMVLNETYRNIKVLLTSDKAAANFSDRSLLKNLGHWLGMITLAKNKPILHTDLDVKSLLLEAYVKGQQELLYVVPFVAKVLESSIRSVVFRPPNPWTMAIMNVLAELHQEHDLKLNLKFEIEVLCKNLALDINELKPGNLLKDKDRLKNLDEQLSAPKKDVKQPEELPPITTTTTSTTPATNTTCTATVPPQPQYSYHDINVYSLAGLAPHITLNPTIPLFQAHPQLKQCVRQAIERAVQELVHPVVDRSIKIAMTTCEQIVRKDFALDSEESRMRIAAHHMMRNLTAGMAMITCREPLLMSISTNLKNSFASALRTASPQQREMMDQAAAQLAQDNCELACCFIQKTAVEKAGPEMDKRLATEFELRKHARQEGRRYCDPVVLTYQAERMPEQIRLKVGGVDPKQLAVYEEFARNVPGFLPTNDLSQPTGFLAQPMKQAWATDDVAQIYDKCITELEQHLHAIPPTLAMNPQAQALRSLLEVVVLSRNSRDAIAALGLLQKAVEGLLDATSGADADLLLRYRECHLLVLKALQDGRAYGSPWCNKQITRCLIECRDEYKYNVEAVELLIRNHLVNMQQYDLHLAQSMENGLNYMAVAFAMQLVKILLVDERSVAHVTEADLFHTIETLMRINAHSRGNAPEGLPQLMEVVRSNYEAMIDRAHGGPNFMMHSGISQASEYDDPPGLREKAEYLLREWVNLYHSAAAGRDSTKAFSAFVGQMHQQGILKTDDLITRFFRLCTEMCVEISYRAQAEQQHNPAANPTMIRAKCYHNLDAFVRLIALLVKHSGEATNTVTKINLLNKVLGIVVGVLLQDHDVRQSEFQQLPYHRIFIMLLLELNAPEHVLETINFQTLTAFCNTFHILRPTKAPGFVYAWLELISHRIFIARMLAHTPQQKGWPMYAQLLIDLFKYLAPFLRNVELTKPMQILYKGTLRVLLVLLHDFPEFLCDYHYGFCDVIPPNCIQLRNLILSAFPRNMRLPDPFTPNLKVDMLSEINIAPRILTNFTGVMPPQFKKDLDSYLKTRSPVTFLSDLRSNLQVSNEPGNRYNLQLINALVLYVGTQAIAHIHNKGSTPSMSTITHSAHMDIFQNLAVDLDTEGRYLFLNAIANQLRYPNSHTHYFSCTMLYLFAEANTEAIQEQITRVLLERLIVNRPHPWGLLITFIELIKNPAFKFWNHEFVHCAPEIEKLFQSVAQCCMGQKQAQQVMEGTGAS
# Some of the results follow. Only hits are listed; about a third recur on repeated control peptides.
# B1: TUG1 (peptide)
# chain: TQLGGQEGAGGWLVV
# B2: LINC00881 (peptide)
# chain: FSFSRPSHALFLFPF
# B3: DANCR (peptide)
# chain: CSRCFMFTFSTFSFN
# B4: SNHG8_2 (peptide)
# chain: IRQWTYRSWGNGCSE
# B5: PVT1 (peptide)
# chain: TMHWNDTRPAHFRIL
# What was measured:
# Assay in all cases: PRISMA enrichment of interactor (LFQ) in peptide spot vs all other peptide spots (log2 fold change); higher = stronger / more specific binding of the interactor to the peptide
# [1] = target: CLNS1A, P54105
# Experimental: (§1)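 PRISMA: 15-aa overlapping tiles (offset 8 aa) of 60 microproteins, plus SOS1/GLUT1 control peptides, were spot-synthesized on cellulose membranes in triplicate. Membranes were incubated with benzonase-treated HEK293T lysate, and bound proteins were identified by LC-MS/MS with LFQ. Enrichment is the log2 fold change of each protein in one spot versus all other spots. Only interactors passing the significance cutoff are listed.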
# [2] = target: GABARAPL2, P60520
# Experimental: as §1
# [3] = target: LCLAT1, Q6UWP7
# Experimental: as §1
# [4] = target: SF1, Q15637
# Experimental: as §1
# [5] = target: SHROOM3, Q8TF72
# Experimental: as §1
# [6] = target: STAG2, Q8N3U4
# Experimental: as §1
# [7] = target: STT3A, P46977
# Experimental: as §1
# [8] = target: CNIH4, Q9P003
# Experimental: as §1
# [9] = target: FAM168B, A1KXE4
# Experimental: as §1
# [10] = target: GPN2, Q9H9Y4
# Experimental: as §1
# [11] = target: MRPL27, Q9P0M9
# Experimental: as §1
# [12] = target: NFS1, Q9Y697
# Experimental: as §1
# [13] = target: NOL11, Q9H8H0
# Experimental: as §1
# [14] = target: TMEM41B, Q5BJD5
# Experimental: as §1
# [15] = target: CNN3, Q15417
# Experimental: as §1
# [16] = target: NUP62, P37198
# Experimental: as §1
# [17] = target: ORMDL1, Q9P0S3
# Experimental: as §1
# [18] = target: PCBP2, Q15366
# Experimental: as §1
# [19] = target: RTTN, Q86VV8
# Experimental: as §1
# [20] = target: CNOT1, A5YKK6
# Experimental: as §1
# [21] = target: HAGH, Q16775
# Experimental: as §1
# [22] = target: HYOU1, Q9Y4L1
# Experimental: as §1
# [23] = target: COA7, Q96BR5
# Experimental: as §1
# [24] = target: COPE, O14579
# Experimental: as §1
# [25] = target: DDX50, Q9BQ39
# Experimental: as §1
# [26] = target: FOXK1, P85037
# Experimental: as §1
# [27] = target: HNRNPAB, Q99729
# Experimental: as §1
# [28] = target: HNRNPR, O43390
# Experimental: as §1
# [29] = target: KIF2C, Q99661
# Experimental: as §1
# [30] = target: MCRIP1, C9JLW8
# Experimental: as §1
# [31] = target: MFAP1, P55081
# Experimental: as §1
# [32] = target: MSH6, P52701
# Experimental: as §1
# [33] = target: ORC2, Q13416
# Experimental: as §1
# [34] = target: PCYT1A, P49585
# Experimental: as §1
# [35] = target: PDAP1, Q13442
# Experimental: as §1
# [36] = target: PELP1, Q8IZL8
# Experimental: as §1
# [37] = target: PUM1, Q14671
# Experimental: as §1
# [38] = target: RAB3GAP2, Q9H2M9
# Experimental: as §1
# [39] = target: SMC1A, Q14683
# Experimental: as §1
# [40] = target: SRSF6, Q13247
# Experimental: as §1
# [41] = target: TALDO1, P37837
# Experimental: as §1
# [42] = target: THRAP3, Q9Y2W1
# Experimental: as §1
# [43] = target: TP53I11, O14683
# Experimental: as §1
# [44] = target: TRMT112, Q9UI30
# Experimental: as §1
# [45] = target: ZNF768, Q9H5H4
# Experimental: as §1
binder,measurement,setting,value
B1,PRISMA enrichment of interactor (log2),[1],4.4
same,PRISMA enrichment of interactor (log2),[2],6.98
same,PRISMA enrichment of interactor (log2),[3],4.52
same,PRISMA enrichment of interactor (log2),[4],5.42
same,PRISMA enrichment of interactor (log2),[5],9.76
same,PRISMA enrichment of interactor (log2),[6],6.75
same,PRISMA enrichment of interactor (log2),[7],5.05
B2,PRISMA enrichment of interactor (log2),[8],4.41
same,PRISMA enrichment of interactor (log2),[9],4.96
same,PRISMA enrichment of interactor (log2),[10],7.93
same,PRISMA enrichment of interactor (log2),[11],6.6
same,PRISMA enrichment of interactor (log2),[12],4.23
same,PRISMA enrichment of interactor (log2),[13],3.8
same,PRISMA enrichment of interactor (log2),[14],4.62
B3,PRISMA enrichment of interactor (log2),[15],4.73
same,PRISMA enrichment of interactor (log2),[16],3.75
same,PRISMA enrichment of interactor (log2),[17],4.15
same,PRISMA enrichment of interactor (log2),[18],5.13
same,PRISMA enrichment of interactor (log2),[19],4.6
B4,PRISMA enrichment of interactor (log2),[20],5.26
same,PRISMA enrichment of interactor (log2),[21],5.67
same,PRISMA enrichment of interactor (log2),[22],5.35
B5,PRISMA enrichment of interactor (log2),[23],7.76
same,PRISMA enrichment of interactor (log2),[24],5.08
same,PRISMA enrichment of interactor (log2),[25],5.28
same,PRISMA enrichment of interactor (log2),[26],8.3
same,PRISMA enrichment of interactor (log2),[27],4.8
same,PRISMA enrichment of interactor (log2),[28],6.34
same,PRISMA enrichment of interactor (log2),[29],5.58
same,PRISMA enrichment of interactor (log2),[30],4.73
same,PRISMA enrichment of interactor (log2),[31],6.29
same,PRISMA enrichment of interactor (log2),[32],5.98
same,PRISMA enrichment of interactor (log2),[33],4.84
same,PRISMA enrichment of interactor (log2),[34],5.34
same,PRISMA enrichment of interactor (log2),[35],5.81
same,PRISMA enrichment of interactor (log2),[36],6.86
same,PRISMA enrichment of interactor (log2),[37],5.54
same,PRISMA enrichment of interactor (log2),[38],5.87
same,PRISMA enrichment of interactor (log2),[39],5.95
same,PRISMA enrichment of interactor (log2),[40],5.82
same,PRISMA enrichment of interactor (log2),[41],5.56
same,PRISMA enrichment of interactor (log2),[42],4.93
same,PRISMA enrichment of interactor (log2),[43],7.9
same,PRISMA enrichment of interactor (log2),[44],6.5
same,PRISMA enrichment of interactor (log2),[45],6.87

# Retrieved one by one from the entries so far, 2 records:
binder,measurement,setting,value
B1,PRISMA enrichment of interactor (log2),[5],9.76
same,PRISMA enrichment of interactor (log2),[7],5.05
